Values from PubChem BioAssay AID1259308 (NCATS, 2017)

Test: 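Genes whose loss raises luciferase production in HEK293 cells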 (primary screen)
Cell system: human HEK293 embryonic kidney cells stably expressing firefly luciferase (HEK-CMV-Luc2-Hygro)
Reagents: single siRNA against human genes, 0.8 pmol siRNA per well
Timing: 72 h
Measurement: 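Luciferase light (ONE-Glo) measured on one replicate plate set and viability (CellTiter-Glo) on the other, scaled to a negative control siRNA, with robust z-scores and luciferase per cell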
Reading the numbers: total luciferase, z-score and total luciferase, % of control: higher = more reporter protein produced
Call rule: 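An siRNA counts as active if its total luciferase robust z-score exceeds 3; genes with two or more such siRNAs out of three were retested with fresh siRNAs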
Calls: active = raised luciferase; inactive = no rise
The whole screen tested about 59,000 reagents; below is an unselected part. Of all reagents, about 1,510 (2.6%) were called active. 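Calls use total luciferase alone and ignore viability, so some active siRNAs may act by altering cell number.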 The numbers tell different reagents against one gene apart. Not all columns of the deposit are shown.

With RS1 (retinoschisin 1) #1, how do the results read?
total luciferase, z-score: 0.557; total luciferase, % of control: 93; call: inactive

How did the screen score RS1 (retinoschisin 1) #2?
total luciferase, z-score: -0.142; total luciferase, % of control: 79.1; call: inactive

What is on record for RS1 (retinoschisin 1) #3?
total luciferase, z-score: 1.29; total luciferase, % of control: 107; call: inactive

What did the screen give for SLC22A12 #1?
total luciferase, z-score: -0.479; total luciferase, % of control: 72.4; call: inactive

For SLC22A12 #2, what does the deposit list?
total luciferase, z-score: 1.02; total luciferase, % of control: 102; call: inactive

For SLC22A12 #3, what does the deposit list?
total luciferase, z-score: 0.256; total luciferase, % of control: 87; call: inactive

For FCMR (Fc mu receptor) #1, what does the deposit list?
total luciferase, z-score: 1.26; total luciferase, % of control: 107; call: inactive

For FCMR (Fc mu receptor) #2, what does the deposit list?
total luciferase, z-score: -0.229; total luciferase, % of control: 77.3; call: inactive

With FCMR (Fc mu receptor) #3, how do the results read?
total luciferase, z-score: 1.57; total luciferase, % of control: 113; call: inactive

What is on record for KLF16 (KLF transcription factor 16) #1?
total luciferase, z-score: 0.137; total luciferase, % of control: 84.6; call: inactive

For KLF16 (KLF transcription factor 16) #2, what was measured?
total luciferase, z-score: 1.26; total luciferase, % of control: 107; call: inactive

For KLF16 (KLF transcription factor 16) #3, what does the deposit list?
total luciferase, z-score: 1.9; total luciferase, % of control: 120; call: inactive

What is on record for ME1 (malic enzyme 1) #1?
total luciferase, z-score: -0.515; total luciferase, % of control: 71.7; call: inactive

For ME1 (malic enzyme 1) #2, what does the deposit list?
total luciferase, z-score: 1.84; total luciferase, % of control: 119; call: inactive

For ME1 (malic enzyme 1) #3, what does the deposit list?
total luciferase, z-score: 0.315; total luciferase, % of control: 88.1; call: inactive

With B3GALNT2 (beta-1,3-N-acetylgalactosaminyltransferase 2) #1, what was measured?
total luciferase, z-score: -1.56; total luciferase, % of control: 50.9; call: inactive

What did the screen give for B3GALNT2 (beta-1,3-N-acetylgalactosaminyltransferase 2) #2?
total luciferase, z-score: 0.203; total luciferase, % of control: 85.9; call: inactive

What did the screen give for B3GALNT2 (beta-1,3-N-acetylgalactosaminyltransferase 2) #3?
total luciferase, z-score: -0.858; total luciferase, % of control: 64.8; call: inactive

How did the screen score ANKRD10 (ankyrin repeat domain 10) #1?
total luciferase, z-score: -0.201; total luciferase, % of control: 77.9; call: inactive

For ANKRD10 (ankyrin repeat domain 10) #2, how do the results read?
total luciferase, z-score: -0.301; total luciferase, % of control: 75.9; call: inactive

How did the screen score ANKRD10 (ankyrin repeat domain 10) #3?
total luciferase, z-score: -0.11; total luciferase, % of control: 79.7; call: inactive

With ZNF563 (zinc finger protein 563) #1, what does the deposit list?
total luciferase, z-score: 0.0485; total luciferase, % of control: 82.9; call: inactive

For ZNF563 (zinc finger protein 563) #2, how do the results read?
total luciferase, z-score: -0.501; total luciferase, % of control: 71.9; call: inactive

How did the screen score ZNF563 (zinc finger protein 563) #3?
total luciferase, z-score: -0.386; total luciferase, % of control: 74.2; call: inactive

How did the screen score SCYL3 (SCY1 like pseudokinase 3) #1?
total luciferase, z-score: 0.108; total luciferase, % of control: 84; call: inactive

With SCYL3 (SCY1 like pseudokinase 3) #2, what was measured?
total luciferase, z-score: -0.219; total luciferase, % of control: 77.5; call: inactive

For SCYL3 (SCY1 like pseudokinase 3) #3, what does the deposit list?
total luciferase, z-score: -1.32; total luciferase, % of control: 55.7; call: inactive

How did the screen score GFM1 (G elongation factor mitochondrial 1) #1?
total luciferase, z-score: -0.811; total luciferase, % of control: 65.8; call: inactive

What is on record for GFM1 (G elongation factor mitochondrial 1) #2?
total luciferase, z-score: -0.00161; total luciferase, % of control: 81.9; call: inactive

For GFM1 (G elongation factor mitochondrial 1) #3, what does the deposit list?
total luciferase, z-score: -0.984; total luciferase, % of control: 62.3; call: inactive

What did the screen give for POLB (DNA polymerase beta) #1?
total luciferase, z-score: -0.26; total luciferase, % of control: 76.7; call: inactive

With POLB (DNA polymerase beta) #2, what was measured?
total luciferase, z-score: -0.667; total luciferase, % of control: 68.6; call: inactive

Which result is listed for POLB (DNA polymerase beta) #3?
total luciferase, z-score: -2; total luciferase, % of control: 42.1; call: inactive

What is on record for RPS6KB2 (ribosomal protein S6 kinase B2) #1?
total luciferase, z-score: -0.124; total luciferase, % of control: 79.4; call: inactive

What did the screen give for RPS6KB2 (ribosomal protein S6 kinase B2) #2?
total luciferase, z-score: 0.737; total luciferase, % of control: 96.6; call: inactive

What did the screen give for RPS6KB2 (ribosomal protein S6 kinase B2) #3?
total luciferase, z-score: -0.673; total luciferase, % of control: 68.5; call: inactive

With EFNB3 (ephrin B3) #1, what was measured?
total luciferase, z-score: -0.364; total luciferase, % of control: 74.6; call: inactive

For EFNB3 (ephrin B3) #2, what was measured?
total luciferase, z-score: 0.344; total luciferase, % of control: 88.7; call: inactive

With EFNB3 (ephrin B3) #3, how do the results read?
total luciferase, z-score: 0.654; total luciferase, % of control: 94.9; call: inactive

With HADHA #1, what was measured?
total luciferase, z-score: -0.218; total luciferase, % of control: 77.6; call: inactive

Which result is listed for HADHA #2?
total luciferase, z-score: -0.0106; total luciferase, % of control: 81.7; call: inactive

Which result is listed for HADHA #3?
total luciferase, z-score: -1.66; total luciferase, % of control: 49; call: inactive
